Measured data: PubChem BioAssay AID504793 (Drosophila RNAi Screening Center, 2011)
Test: 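Whole-genome screen for parts of the DNA damage checkpoint at G2/M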 (primary screen). Cell system: Drosophila S2R+ cells. Reagent: long dsRNA against Drosophila genes, about 0.25 µg dsRNA per well. Timing: 4 days of dsRNA, then 4 hours of drug before read-out. Challenge: doxorubicin 0.5 µM for 4 hours to cause double-strand breaks, in cells also given a low, harmless dose of dsRNA against nbs to sensitise the assay. Measurement: 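Per-well count of mitotic cells stained for phospho-histone H3 after doxorubicin exposure, used as mitotic index; counts are raw and not normalised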. Scale: mitotic cells: higher = more cells in mitosis, weaker G2 arrest. Rule for the call: 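a call needs confirmation in secondary tests, with other dsRNAs and a check of mitotic timing without damage, not just a high primary count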. Calls: active = confirmed in follow-up tests; inactive = not confirmed.
The deposit covers about 23,000 reagents; shown is an unselected part of those that have a named target and a result. Of all reagents, 62 (0.27%) got an active call. 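Calls come from follow-up tests whose scores are not deposited, so confirmed genes may have low counts here; counts are not normalised per plate.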 Raw values vary from plate to plate and are shown uncorrected.

gene | amplicon | mitotic cells, replicate 1 | outcome
TotC | DRSC13449 | 8 | inactive
Or67a | DRSC11240 | 3 | inactive
Patr-1 | DRSC14159 | 13 | inactive
Patr-1 | DRSC26481 | 10 | inactive
Ir52a | DRSC06262 | 3 | inactive
Skp2 | DRSC12329 | 11 | inactive
Skp2 | DRSC28203 | 13 | inactive
CG9664 | DRSC00725 | 3 | inactive
cwo | DRSC17072 | – | inactive
cwo | DRSC25219 | 6 | inactive
CG17110 | DRSC15173 | 10 | inactive
SCCRO | DRSC10844 | 5 | inactive
SCCRO | DRSC29998 | 11 | inactive
CG10863 | DRSC08145 | 4 | inactive
CG3088 | DRSC10352 | 8 | inactive
DJ-1alpha | DRSC07005 | 5 | inactive
Cul6 | DRSC09830 | 7 | inactive
Zip42C.1 | DRSC05003 | 8 | inactive
trk | DRSC03625 | 1 | inactive
Hex-C | DRSC07079 | 4 | inactive
Hex-C | DRSC24095 | 6 | inactive
NFAT | DRSC18991 | 3 | inactive
NFAT | DRSC19393 | 17 | inactive
NFAT | DRSC24828 | 3 | inactive
NFAT | DRSC29663 | 9 | inactive
Cht2 | DRSC08650 | 10 | inactive
Cht2 | DRSC24801 | 4 | inactive

Quoted from the listing (6 entries):
gene | amplicon | mitotic cells, replicate 1 | outcome
CG3088 | DRSC10352 | 8 | inactive
DJ-1alpha | DRSC07005 | 5 | inactive
Cul6 | DRSC09830 | 7 | inactive
Zip42C.1 | DRSC05003 | 8 | inactive
trk | DRSC03625 | 1 | inactive
Hex-C | DRSC07079 | 4 | inactive

The listing continues:
gene | amplicon | mitotic cells, replicate 1 | outcome
CG12926 | DRSC06239 | 13 | inactive
CG12926 | DRSC21930 | 6 | inactive
Alp2 | DRSC04354 | 14 | inactive
Alp2 | DRSC26474 | 8 | inactive
CG10175 | DRSC13628 | 14 | inactive
CG10175 | DRSC14200 | 7 | inactive
CG10175 | DRSC21981 | 8 | inactive
btz | DRSC14566 | 7 | inactive
btz | DRSC23613 | 3 | inactive
CG13313 | DRSC09984 | 7 | inactive
CG13313 | DRSC28463 | 1 | inactive
Cog8 | DRSC02961 | 3 | inactive
stau | DRSC07698 | 7 | inactive
Cht12 | DRSC03844 | 4 | inactive
hng3 | DRSC08367 | 10 | inactive
hng3 | DRSC29262 | 2 | inactive
CG17141 | DRSC15178 | 10 | inactive
CG32512 | DRSC20519 | 12 | inactive
CG32512 | DRSC20551 | 4 | inactive
CG32512 | DRSC21401 | 13 | inactive
